Experimental data taken from US20240358735A1, “THERAPEUTIC COMPOSITIONS AND RELATED METHODS” (BOYCE THOMPSON INSTITUTE FOR PLANT RESEARCH, INC., priority 2021, published 2024).

Test system: Cel-cest-1.2 mutants
Test: Comparative metabolomics (HPLC-HRMS) of Cel-cest-1.2 mutants versus wildtype C. elegans (N2)
Settings: abundance of the metabolite in Cel-cest-1.2 mutants compared to C. elegans wildtype (N2)

SMILES	Cel-cest-1.2 fold over WT (N2), average of 4 repeats
O=C(OC[C@H]1O[C@@H](n2ccc3ccccc32)[C@H](OC(=O)c2ccccn2)[C@@H](OP(=O)(O)O)[C@@H]1O)c1ccccc1 [iglu#53]	0.002592
O=C(OC[C@H]1O[C@@H](n2ccc3ccccc32)[C@H](OC(=O)c2cccnc2)[C@@H](OP(=O)(O)O)[C@@H]1O)c1ccccc1 [iglu#54]	0.0003206
O=C(OC[C@H]1O[C@@H](n2ccc3ccccc32)[C@H](OC(=O)c2cccnc2)[C@@H](OP(=O)(O)O)[C@@H]1O)c1cccnc1 [iglu#56]	0.009127
Nc1ccccc1C(=O)OC[C@H]1O[C@@H](n2ccc3ccccc32)[C@H](OC(=O)c2ccc[nH]2)[C@@H](OP(=O)(O)O)[C@@H]1O [iglu#57]	0.0002419
Nc1ccccc1C(=O)O[C@@H]1[C@@H](OP(=O)(O)O)[C@H](O)[C@@H](COC(=O)c2ccc[nH]2)O[C@H]1n1ccc2ccccc21 [iglu#58]	0.0001802
O=C(OC[C@H]1O[C@@H](n2ccc3ccccc32)[C@H](OC(=O)c2ccc[nH]2)[C@@H](OP(=O)(O)O)[C@@H]1O)c1ccc(O)cc1 [iglu#60]	0.0003972
O=C(/C=C/c1c[nH]cn1)OCC1OC(n2ccc3ccccc32)C(OC(=O)c2ccc[nH]2)C(OP(=O)(O)O)C1O (stereo not drawn) [iglu#62]	0.001818
O=C(Cc1ccccc1)O[C@@H]1[C@@H](OP(=O)(O)O)[C@H](O)[C@@H](COC(=O)c2ccccc2)O[C@H]1n1ccc2ccccc21 [iglu#64]	0.0004248
Nc1ccccc1C(=O)OCC1OC(n2ccc3ccccc32)C(OC(=O)c2ccccc2)C(OP(=O)(O)O)C1O (stereo not drawn) [iglu#65]	0.008342
Nc1ccccc1C(=O)OCC1OC(n2ccc3ccccc32)C(OC(=O)c2ccccc2)C(OP(=O)(O)O)C1O (stereo not drawn) [iglu#66]	0.0001206
Nc1ccccc1C(=O)OCC1OC(n2ccc3ccccc32)C(OC(=O)c2ccccc2)C(OP(=O)(O)O)C1O (stereo not drawn) [iglu#68]	0.001092
O=C(/C=C/c1cnc[nH]1)OC[C@H]1O[C@@H](n2ccc3ccccc32)[C@H](OC(=O)c2ccccc2)[C@@H](OP(=O)(O)O)[C@@H]1O [iglu#69]	0.01464
O=C(/C=C/c1c[nH]cn1)OC[C@H]1O[C@@H](n2ccc3ccccc32)[C@H](OC(=O)c2ccccc2)[C@@H](OP(=O)(O)O)[C@@H]1O [iglu#70]	0.003904
Nc1ccccc1C(=O)OCC1OC(n2ccc3ccccc32)C(OC(=O)Cc2ccccc2)C(OP(=O)(O)O)C1O (stereo not drawn) [iglu#72]	0.0009403
Nc1ccccc1C(=O)OC[C@H]1O[C@@H](n2ccc3ccccc32)[C@H](OC(=O)c2ccccc2N)[C@@H](CP(=O)(O)O)[C@@H]1O [iglu#74]	0.00003983
Nc1ccccc1C(=O)OC[C@H]1O[C@@H](n2ccc3ccccc32)[C@H](OC(=O)c2ccc(O)cc2)[C@@H](CP(=O)(O)O)[C@@H]1O [iglu#75]	0.01522
Nc1ccccc1C(=O)O[C@@H]1[C@@H](CP(=O)(O)O)[C@H](O)[C@@H](COC(=O)c2ccc(O)cc2)O[C@H]1n1ccc2ccccc21 [iglu#76]	0.00023
Nc1ccccc1C(=O)O[C@@H]1[C@@H](OP(=O)(O)O)[C@H](O)[C@@H](COC(=O)/C=C/c2c[nH]cn2)O[C@H]1n1ccc2ccccc21 [iglu#82]	0.001108
CCCC(=O)OC[C@H]1O[C@@H](n2ccc3ccccc32)[C@H](OC(=O)c2ccccc2N)[C@@H](OP(=O)(O)O)[C@@H]1O [iglu#84]	0.001499
Nc1ccccc1C(=O)O[C@@H]1[C@@H](CP(=O)(O)O)[C@H](O)[C@@H](COC(=O)Cc2ccc(O)cc2)O[C@H]1n1ccc2ccccc21 [iglu#86]	0.01799
C/C=C(\C)C(=O)OC[C@H]1O[C@@H](OC(=O)c2ccccc2N)[C@H](OC(=O)c2ccccc2N)[C@@H](OP(=O)(O)O)[C@@H]1O [iglu#88]	0.00003421
Nc1ccccc1C(=O)OCC1OC(n2ccc3ccccc32)C(OC(=O)c2ccccc2)C(CP(=O)(O)O)C1O (stereo not drawn) [iglu#90]	0.001939
CCCC(=O)OC[C@H]1O[C@@H](n2ccc3ccccc32)[C@H](OC(=O)c2cccnc2)[C@@H](OP(=O)(O)O)[C@@H]1O [iglu#92]	0.008002
O=C(O[C@@H]1[C@@H](OP(=O)(O)O)[C@H](O)[C@@H](CO)O[C@H]1n1ccc2ccccc21)c1ccc[nH]1 [iglu#101, (2R,3R,4S,5R,6R)-5-hydroxy-6-(hydroxymethyl)-2-(1H-indol-1-yl)-4-(phosphonooxy)tetrahydro-2H-pyran-3-yl 1H-pyrrole-2-carboxylate]	0.0002768
O=C(O[C@@H]1[C@@H](OP(=O)(O)O)[C@H](O)[C@@H](CO)O[C@H]1n1ccc2ccccc21)c1ccccc1 [iglu#121, (2R,3R,4S,5R,6R)-5-hydroxy-6-(hydroxymethyl)-2-(1H-indol-1-yl)-4-(phosphonooxy)tetrahydro-2H-pyran-3-yl benzoate]	0.0006277
CC(C)CC(=O)O[C@@H]1[C@@H](OP(=O)(O)O)[C@H](O)[C@@H](CO)O[C@H]1n1ccc2ccccc21 [iglu#141]	0.0009611

SMILES	Cel-cest-1.2 fold over WT (N2), average of 4 repeats
O=C(O[C@@H]1[C@@H](OP(=O)(O)O)[C@H](O)[C@@H](CO)O[C@H]1n1ccc2ccccc21)c1ccc(O)cc1 [iglu#181]	0.004916
Nc1ccccc1C(=O)O[C@@H]1[C@@H](OP(=O)(O)O)[C@H](O)[C@@H](CO)O[C@H]1n1ccc2ccccc21 [iglu#401, (2R,3R,4S,5R,6R)-5-hydroxy-6-(hydroxymethyl)-2-(1H-indol-1-yl)-4-(phosphonooxy)tetrahydro-2H-pyran-3-yl 2-aminobenzoate]	0.0009932
O=C(O[C@@H]1[C@@H](OP(=O)(O)O)[C@H](O)[C@@H](CO)O[C@H]1n1ccc2ccccc21)c1ccccn1 [iglu#601]	0.001845
C/C=C(\C)C(=O)O[C@@H]1[C@@H](CP(=O)(O)O)[C@H](O)[C@@H](CO)O[C@H]1n1ccc2ccccc21 [iglu#801]	0.0007176
Cn1c(N)nc2c(ncn2C2OC(COC(=O)c3ccccc3)C(O)C(OP(=O)(O)O)C2OC(=O)c2ccccc2)c1=O (stereo not drawn) [mgglu#4]	0.004434
Cn1c(N)nc2c(ncn2C2OC(COC(=O)c3ccccc3)C(O)C(OP(=O)(O)O)C2OC(=O)c2ccccc2)c1=O (stereo not drawn) [mgglu#6]	0.000397
Cn1c(N)nc2c(ncn2C2OC(CO)C(O)C(OP(=O)(O)O)C2OC(=O)c2ccccc2)c1=O (stereo not drawn) [mgglu#201]	0.003821
C/C=C(\C)C(=O)OCC1OC(OC(=O)c2cccnc2)C(OC(=O)c2ccccc2)C(OP(=O)(O)O)C1O (stereo not drawn) [nglu#3]	0.003827
C/C=C(\C)C(=O)OCC1OC(OC(=O)c2cccnc2)C(OC(=O)c2ccccc2)C(OP(=O)(O)O)C1O (stereo not drawn) [nglu#4]	0.001611
C/C=C(\C)C(=O)OCC1OC(OC(=O)c2cccnc2)C(OC(=O)c2cccnc2)C(OP(=O)(O)O)C1O (stereo not drawn) [nglu#5]	0.003987
C/C=C(\C)C(=O)OCC1OC(OC(=O)c2cccnc2)C(OC(=O)c2cccnc2)C(OP(=O)(O)O)C1O (stereo not drawn) [nglu#6]	0.0138
CCC/C=C/C(=O)OCC1OC(OC(=O)c2cccnc2)C(OC(=O)c2cccnc2)C(OP(=O)(O)O)C1O (stereo not drawn) [nglu#7]	0.008962
CCC/C=C/C(=O)OCC1OC(OC(=O)c2cccnc2)C(OC(=O)c2cccnc2)C(OP(=O)(O)O)C1O (stereo not drawn) [nglu#8]	0.004243
CCC/C=C/C(=O)OCC1OC(OC(=O)c2cccnc2)C(OC(=O)c2cccnc2)C(OP(=O)(O)O)C1O (stereo not drawn) [nglu#9]	0.001451
CC(C)CC(=O)OCC1OC(OC(=O)c2cccnc2)C(OC(=O)Cc2ccccc2)C(OP(=O)(O)O)C1O (stereo not drawn) [nglu#10]	0.002083
NCC(O)c1ccc(O[C@@H]2O[C@H](COC(=O)c3ccc[nH]3)[C@@H](O)[C@H](OP(=O)(O)O)[C@H]2OC(=O)c2ccccc2)cc1 (stereo partly drawn) [oglu#7]	0.001472
NCC(O)c1ccc(O[C@@H]2O[C@H](COC(=O)c3ccc[nH]3)[C@@H](O)[C@H](OP(=O)(O)O)[C@H]2OC(=O)c2ccccc2)cc1 (stereo partly drawn) [oglu#8]	0.01745
NCC(O)c1ccc(O[C@@H]2O[C@H](COC(=O)c3ccc[nH]3)[C@@H](O)[C@H](OP(=O)(O)O)[C@H]2OC(=O)c2ccccc2)cc1 (stereo partly drawn) [oglu#9]	0.0002913
C/C=C(\C)C(=O)OC[C@H]1O[C@@H](Cc2ccc(C(O)CN)cc2)[C@H](OC(=O)c2ccccc2N)[C@@H](OP(=O)(O)O)[C@@H]1O (stereo partly drawn) [oglu#10]	0.002545
NCC(O)c1ccc(C[C@@H]2O[C@H](COC(=O)c3ccccc3N)[C@@H](O)[C@H](OP(=O)(O)O)[C@H]2OC(=O)c2cccnc2)cc1 (stereo partly drawn) [oglu#15]	0.0007264
NCC(O)c1ccc(C[C@@H]2O[C@H](COC(=O)c3cccnc3)[C@@H](O)[C@H](OP(=O)(O)O)[C@H]2OC(=O)c2ccccc2N)cc1 (stereo partly drawn) [oglu#16]	0.0007457
NCC(O)c1ccc(C[C@@H]2O[C@H](COC(=O)c3ccc(O)cc3)[C@@H](O)[C@H](OP(=O)(O)O)[C@H]2OC(=O)c2ccccc2N)cc1 (stereo partly drawn) [oglu#17]	0.001505
CCCCCC(=O)CC(=O)OC[C@H]1O[C@@H](Cc2ccc(C(O)CN)cc2)[C@H](OC(=O)c2ccccc2N)[C@@H](OP(=O)(O)O)[C@@H]1O (stereo partly drawn) [oglu#22]	0.0006312
NCC(O)c1ccc(OC2OC(COC(=O)c3ccc[nH]3)C(O)C(OP(=O)(O)O)C2OC(=O)c2ccc[nH]2)cc1 (stereo not drawn) [oglu#26]	0.01264
C/C=C(\C)C(=O)OC1C(Oc2ccc(C(O)CN)cc2)OC(COC(=O)c2ccc[nH]2)C(O)C1OP(=O)(O)O (stereo not drawn) [oglu#601]	0.002277
